Our source for the binding values is article PMC11628346.

Protein sequences, listed by entry. Tags and fused reporters are not part of them.
UniProt Q86U44: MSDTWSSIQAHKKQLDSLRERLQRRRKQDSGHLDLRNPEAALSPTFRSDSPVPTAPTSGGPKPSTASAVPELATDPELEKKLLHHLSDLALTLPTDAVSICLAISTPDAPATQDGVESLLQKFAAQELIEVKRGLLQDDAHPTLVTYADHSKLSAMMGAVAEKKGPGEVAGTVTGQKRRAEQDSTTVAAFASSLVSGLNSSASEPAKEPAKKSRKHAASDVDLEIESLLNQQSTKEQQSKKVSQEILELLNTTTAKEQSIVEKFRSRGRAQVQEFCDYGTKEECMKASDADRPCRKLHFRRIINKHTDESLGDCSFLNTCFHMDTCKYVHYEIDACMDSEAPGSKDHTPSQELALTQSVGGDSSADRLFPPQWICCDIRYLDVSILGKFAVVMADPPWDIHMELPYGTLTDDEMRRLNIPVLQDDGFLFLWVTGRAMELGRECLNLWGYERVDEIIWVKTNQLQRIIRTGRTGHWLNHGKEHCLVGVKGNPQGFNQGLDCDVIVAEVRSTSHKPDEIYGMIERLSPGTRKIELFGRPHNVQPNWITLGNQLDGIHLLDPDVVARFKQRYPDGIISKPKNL
UniProt P45974: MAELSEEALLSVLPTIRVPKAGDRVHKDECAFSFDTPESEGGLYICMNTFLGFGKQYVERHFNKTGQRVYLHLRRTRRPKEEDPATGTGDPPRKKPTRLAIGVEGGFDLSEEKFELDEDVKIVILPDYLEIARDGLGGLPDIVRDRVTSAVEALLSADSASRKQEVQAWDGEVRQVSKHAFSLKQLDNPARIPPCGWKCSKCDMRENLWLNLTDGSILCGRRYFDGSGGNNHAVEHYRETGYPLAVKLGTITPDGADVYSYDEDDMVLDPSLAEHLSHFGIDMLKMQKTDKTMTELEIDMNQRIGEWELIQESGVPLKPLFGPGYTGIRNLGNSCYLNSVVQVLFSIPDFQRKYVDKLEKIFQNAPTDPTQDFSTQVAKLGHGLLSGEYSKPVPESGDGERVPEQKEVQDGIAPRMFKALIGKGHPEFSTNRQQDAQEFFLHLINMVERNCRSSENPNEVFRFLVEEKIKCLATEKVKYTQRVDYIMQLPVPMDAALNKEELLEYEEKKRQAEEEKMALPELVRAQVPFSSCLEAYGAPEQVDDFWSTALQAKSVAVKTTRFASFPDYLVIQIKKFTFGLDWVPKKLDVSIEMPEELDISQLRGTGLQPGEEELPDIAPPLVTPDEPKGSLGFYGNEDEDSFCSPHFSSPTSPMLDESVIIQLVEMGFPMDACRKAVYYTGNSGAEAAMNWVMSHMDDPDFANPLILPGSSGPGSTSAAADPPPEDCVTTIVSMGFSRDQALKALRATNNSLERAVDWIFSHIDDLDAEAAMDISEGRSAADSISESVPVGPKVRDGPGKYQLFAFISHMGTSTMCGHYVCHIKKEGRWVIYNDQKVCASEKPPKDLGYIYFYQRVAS

The target in assay [1] is methyltransferase like 3 (METTL3) (UniProt Q86U44). Kind of assay: co-IP; co-immunoprecipitation of USP5 with METTL3 in NPC cells with overexpressed BRD7.
Assay [2] shares this target. Kind of assay: co-IP; co-immunoprecipitation and western blotting in NPC cells (5-8F, CNE2); whole proteins.

Results are given in words; binding and its absence hold for the method and conditions named. Binding seen in cells or lysates may run through a third protein. Some binding calls cover weakened binding; strength is not graded here.

For the substance “ubiquitin specific peptidase 5 (USP5) (from UniProt P45974 1-858) (enzyme)”, the binding result in assay [1] and in assay [2] was “binds” each time.
